# Measured values reported in publication PMC4748739.
# Protein sequences, listed by entry. Tags and fused reporters are not part of them. Residues count along the entry.
# UniProt Q9QUK6, residues 26-835: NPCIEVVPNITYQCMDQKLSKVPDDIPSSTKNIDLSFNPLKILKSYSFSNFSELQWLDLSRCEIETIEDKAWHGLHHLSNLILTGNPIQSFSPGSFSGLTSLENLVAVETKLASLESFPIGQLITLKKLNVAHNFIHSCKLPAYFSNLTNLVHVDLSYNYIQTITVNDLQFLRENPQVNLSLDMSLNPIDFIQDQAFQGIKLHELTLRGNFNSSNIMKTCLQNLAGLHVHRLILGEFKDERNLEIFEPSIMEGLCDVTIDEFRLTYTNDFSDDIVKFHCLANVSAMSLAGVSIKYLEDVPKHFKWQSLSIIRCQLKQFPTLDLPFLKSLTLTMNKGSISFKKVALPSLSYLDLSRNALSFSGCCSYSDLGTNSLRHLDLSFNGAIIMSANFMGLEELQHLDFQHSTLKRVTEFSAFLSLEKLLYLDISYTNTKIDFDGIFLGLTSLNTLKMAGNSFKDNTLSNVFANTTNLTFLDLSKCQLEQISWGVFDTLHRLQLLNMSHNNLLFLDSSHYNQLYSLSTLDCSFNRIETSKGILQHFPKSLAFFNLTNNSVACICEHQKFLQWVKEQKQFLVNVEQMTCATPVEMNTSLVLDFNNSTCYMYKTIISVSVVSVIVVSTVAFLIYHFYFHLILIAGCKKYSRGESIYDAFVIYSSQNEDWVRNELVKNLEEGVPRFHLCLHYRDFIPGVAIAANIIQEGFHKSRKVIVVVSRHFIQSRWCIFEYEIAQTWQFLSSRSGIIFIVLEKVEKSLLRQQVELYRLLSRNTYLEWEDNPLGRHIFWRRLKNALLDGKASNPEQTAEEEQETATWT
# Results are given in words; binding and its absence hold for the method and conditions named. Binding seen in cells or lysates may run through a third protein. Some entries that bind do so weakly or less than the wild type.
# Biological target: T1, CD14 (mouse (endogenous in RAW264.7)) (UniProt P10810)
# T1 sequence: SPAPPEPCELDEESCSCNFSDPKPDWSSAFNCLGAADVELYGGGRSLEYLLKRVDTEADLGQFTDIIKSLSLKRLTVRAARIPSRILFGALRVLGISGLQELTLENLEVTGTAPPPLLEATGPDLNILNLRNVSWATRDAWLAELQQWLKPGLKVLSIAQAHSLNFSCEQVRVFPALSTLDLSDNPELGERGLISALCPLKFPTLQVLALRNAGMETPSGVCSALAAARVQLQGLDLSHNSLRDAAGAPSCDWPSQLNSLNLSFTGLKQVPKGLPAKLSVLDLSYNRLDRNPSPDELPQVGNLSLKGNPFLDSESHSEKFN
# Assay: co-IP; RAW264.7 lysates (50 mM Hepes, 100 mM NaCl, 2 mM EDTA, 10% glycerol, 1% Igepal CA-630), IP with anti-mouse CD14 antibody at 4°C, Protein A/G Plus-Agarose, Western blot for TLR4; cells unstimulated or stimulated with LPS (1 µg/mL) or viable P. aeruginosa (MOI 1) for 24 h, with or without PUFA (LNA, EPA, DHA, LA, AA; 15 µM, 72 h)
substance,measurement,value
Toll-like receptor 4 (from UniProt Q9QUK6 26-835),binding,binds
